Experimental data as given in PubChem BioAssay AID504648 (National Center for Advancing Translational Sciences (NCATS), 2011).
The campaign covered roughly 390,000 compounds. About 610 (0.16%) were called active. Inconclusive results, whose numbers are uncertain, are shown with a selection of clear calls. Calls follow the shape of the dose curve; as a rule, active = well fitted inhibition curve with a large enough effect; inconclusive = small, poorly fitted or top-dose-only effect, or effect the other way, or another doubt; inactive = no such curve, though single readings can be large or run the other way. Potencies of inconclusive entries are doubtful fits and often do not repeat.

Assay: Nrf2 qHTS screen for inhibitors: counterscreen for cytotoxicity
Conditions: A549 ARE-Fluc cells, CellTiter-Fluor viability, 18-24 h; activity change, negative = cytotoxicity: at 46 µM (top of the series)
Summary of the method: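 Cytotoxicity counterscreen: CellTiter-Fluor fluorescence was measured in A549 ARE_Fluc cells after 18-24 h of compound exposure in a concentration series. The subsequent BugLite luminescent read reports ARE-luciferase activity.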
% is scaled to controls: 0 for no effect and ±100 for the full control effect; potency is read from the fitted curve at half-maximal effect.

Row | Compound | Potency | activity change, negative = cytotoxicity
1 | OCC1(Cc2ccccc2)CCN(C2CCN(c3ccc(F)c(F)c3)CC2)CC1 | inconclusive: 23.1 µM [falling, partial curve, poor fit] | 
2 | Cc1ccc(OCc2nnc(SCc3ccc(C#N)cc3)n2-c2ccc(C)cc2)cc1 | inconclusive: 20.6 µM [falling, single point] | 
3 | CC(C)Cc1ccc(C(C)C(=O)Nc2nccs2)cc1 (stereo not given) | inconclusive: 29.1 µM [activator, partial curve, poor fit] | 
4 | CCCc1cc(=O)[nH]c(SCC(=O)NC2CCCCCCC2)n1 | inconclusive: 16.4 µM [falling, partial curve, poor fit] | 
5 | CC(C)Oc1ccc(S(=O)(=O)N2CCOCC2)cc1NC(=O)C1=NN(c2ccccc2)C(=O)CC1 |  | inactive: -6.77%
6 | c1ccc2c(-c3c[nH]c4ccccc34)c3ccccc3nc2c1 | inconclusive: 14.6 µM [falling, partial curve, poor fit] | 
7 | O=C(COc1cccnc1[N+](=O)[O-])Nc1c(Cl)cccc1Cl |  | inactive: 3.03%
8 | O=C(CCCN1C(=O)/C(=C\c2cccc(Br)c2)SC1=S)Nc1cccnc1 | inconclusive: 29.1 µM [falling, single point] | 
9 | CC(CNC(=O)c1ccc(Cn2c(SCc3ccccc3)nc3cccnc32)cc1)c1ccccc1 (stereo not given) | inconclusive: 20.6 µM [falling, single point] | 
10 | COc1cc2[nH]c(=O)n(Cc3ccc(C(=O)N4CCN(c5cccc(C)c5C)CC4)cc3)c(=O)c2cc1OC |  | inactive: -0.355%
11 | NC(N)=N/N=C/c1ccc(OCc2ccccc2Cl)cc1 | inconclusive: 18.4 µM [falling, single point] | 
12 | O=C(COC(=O)c1ccc(Cl)nc1)Nc1cccc(S(=O)(=O)N2CCCCC2)c1 |  | inactive: 9.94%
13 | CN(CC(=O)NCCc1ccccc1)S(=O)(=O)c1cccc2nsnc12 |  | inactive: 2.07%
14 | N=c1sccn1CC(=O)NCc1ccc(Cl)cc1Cl | inconclusive: 10.3 µM [falling, partial curve, poor fit] | 
15 | CN(C)CCCNc1ccc(-c2cc(Nc3cccc(Cl)c3)ncn2)cn1 |  | inactive: 0.75%
16 | COc1ccc(-c2nnn(CCc3nn[nH]n3)n2)cc1OC | inconclusive: 14.6 µM [falling, single point] | 
17 | COC(=O)c1cc(=O)n(CCc2ccc(OC)c(OC)c2)c(=Nc2ccc(F)c(Cl)c2)s1 | inconclusive: 16.4 µM [falling, partial curve] | 
18 | N#Cc1ccc(C23CC4(C2)[C@H](CN(P(=O)(c2ccccc2)c2ccccc2)[C@@H]4c2ccccc2)C3c2ccc(Cl)nc2)cc1 (stereo not given in full) | inconclusive: 23.1 µM [falling, partial curve, poor fit] | 
19 | CCc1ccc(Sc2cc(C(=O)NCCCN3CCCC(C)C3)c3ccccc3n2)cc1 (stereo not given) | inconclusive: 23.1 µM [falling, partial curve, poor fit] | 
20 | Cc1ccc(NC(=O)CN(C)C(=O)c2cccnc2Nc2cccc(C(F)(F)F)c2)cc1 | inconclusive: 25.9 µM [falling, single point] | 
21 | OC[C@@H](O)[C@@H](O[C@H]1O[C@H](CO)[C@@H](O)[C@H](O)[C@H]1O)[C@H](O)[C@@H](O)CO | inconclusive: 32.6 µM [falling, partial curve, poor fit] | 
22 | Cc1cccc(Nc2nc3ccccc3n3c(N)nnc23)c1 |  | inactive: 0.0099%

Row | Compound | Potency | activity change, negative = cytotoxicity
23 | Cc1ccc(OCC(=O)Nc2ccc3c(c2)OCCO3)cc1C | inconclusive: 16.4 µM [falling, single point] | 
24 | Cc1ccc(-c2noc(CSc3nnc(Cc4ccccc4)n3-c3ccc(Cl)cc3)n2)cc1 | inconclusive: 23.1 µM [falling, single point] | 
25 | CCN1/C(=C/c2ccc3ccccc3[n+]2CCCS(=O)(=O)[O-])C=Cc2cc(C)ccc21 | inconclusive: 16.4 µM [falling, single point] | 
26 | CC1CCN(S(=O)(=O)c2ccc3c4c2CC(=O)N4CC(C)S3)CC1 (stereo not given) |  | inactive: -8.31%
27 | COC(=O)N/N=C/c1cc([N+](=O)[O-])cc(Br)c1O | inconclusive: 25.9 µM [falling, single point] | 
28 | CCN1CCN(c2cc(N3CCN(C(=O)c4ccco4)CC3)c3c4c(onc24)-c2ccccc2C3=O)CC1 | inconclusive: 16.4 µM [falling, single point] | 
29 | CCN(CC)S(=O)(=O)c1cnccc1N1CCN(c2cccc(Cl)c2)CC1 | inconclusive: 29.1 µM [falling, partial curve, poor fit] | 
30 | CCN(CCCNC(=O)c1cc2c(=O)[nH]c3ccc(C)cc3c2s1)Cc1ccccc1 | inconclusive: 23.1 µM [falling, partial curve, poor fit] | 
31 | NC[C@H](O)c1ccc(O)c(O)c1 | inactive | 
32 | O=S(=O)(O)c1cc(O)c(N=Nc2ccc(O)cc2O)c2ccccc12 | active: 20.6 µM | 
33 | O=c1cc(C(Cl)(Cl)Cl)oc2c1ccc1ccccc12 | inconclusive: 23.1 µM [falling, single point] | 
34 | CC(C(=O)Nc1ccc2c(c1)OCO2)N1CCC(N2CCCCC2)CC1 (stereo not given) |  | inactive: -4.25%
35 | COc1ccc(/C=C2\SC(=S)N(C(C)C(=O)NC3C=CS(=O)(=O)C3)C2=O)cc1 (stereo not given) | inconclusive: 23.1 µM [falling, partial curve, poor fit] | 
36 | CN(C)S(=O)(=O)Oc1cccc(C(=O)Nc2ccc(Cl)cc2)c1 | inconclusive: 9.2 µM [falling, single point] | 
37 | COc1ccc(C(=O)NN=C2CCCC2)cc1 | inconclusive: 23.1 µM [activator, single point] | 
38 | Cc1ccc2c(c1)N(C(=O)CCC(=O)NCCCN1CC(C)CC(C)C1)CCO2 (stereo not given) | inconclusive: 4.61 µM [falling, partial curve, poor fit] | 
39 | CN1/C(=C/C=C(/C#N)C(N)=O)C(C)(C)c2ccccc21 | inconclusive: 9.2 µM [falling, partial curve] | 
40 | N#C/C(=C\c1ccc([N+](=O)[O-])cc1)c1nc(C2CC2)cs1 |  | inactive: 1.14%
41 | CCn1c(=O)c(C(=O)NNC(=O)c2ccccc2Br)c(O)c2ccccc21 | inconclusive: 23.1 µM [falling, single point] | 
42 | COc1cc(C(CC(=O)N2CCCC2)c2c(OC)cc(OC)c3ccc(=O)oc23)cc(OC)c1OC (stereo not given) | inconclusive: 29.1 µM [falling, partial curve, poor fit] | 
43 | COC(=O)Cn1cc(/C=C/c2cc[n+](C)cc2)c2ccccc21 | inconclusive: 16.4 µM [falling, partial curve, poor fit] | 
44 | CC/C(=N\NC(N)=O)c1ccc(OC)c(OC)c1 |  | inactive: -4.83%

Reprinted at random: 6 compounds from above.
Row | Compound | Potency | activity change, negative = cytotoxicity
21 | OC[C@@H](O)[C@@H](O[C@H]1O[C@H](CO)[C@@H](O)[C@H](O)[C@H]1O)[C@H](O)[C@@H](O)CO | inconclusive: 32.6 µM [falling, partial curve, poor fit] | 
11 | NC(N)=N/N=C/c1ccc(OCc2ccccc2Cl)cc1 | inconclusive: 18.4 µM [falling, single point] | 
24 | Cc1ccc(-c2noc(CSc3nnc(Cc4ccccc4)n3-c3ccc(Cl)cc3)n2)cc1 | inconclusive: 23.1 µM [falling, single point] | 
34 | CC(C(=O)Nc1ccc2c(c1)OCO2)N1CCC(N2CCCCC2)CC1 (stereo not given) |  | inactive: -4.25%
6 | c1ccc2c(-c3c[nH]c4ccccc34)c3ccccc3nc2c1 | inconclusive: 14.6 µM [falling, partial curve, poor fit] | 
35 | COc1ccc(/C=C2\SC(=S)N(C(C)C(=O)NC3C=CS(=O)(=O)C3)C2=O)cc1 (stereo not given) | inconclusive: 23.1 µM [falling, partial curve, poor fit] | 

(cont.)

Row | Compound | Potency | activity change, negative = cytotoxicity
45 | Cc1cc(C)c(S(=O)(=O)N2CCN(C(=O)c3c(C)nn(-c4ccccc4)c3Cl)CC2)c(C)c1 | inconclusive: 0.184 µM [activator, full curve, poor fit] | 
46 | C/C(=N\Nc1nc(C)cc(=O)[nH]1)C1CC1 | inconclusive: 29.1 µM [falling, partial curve, poor fit] | 
47 | COc1ccccc1NC(=O)c1c(C)nc2ccccc2c1C(=O)O |  | inactive: 0.336%
48 | COC(=O)c1c(SC)nc2ccccc2c1OCc1cc(C)ccc1C | inconclusive: 29.1 µM [activator, single point] | 
49 | CC1C=CC=CC=CC=CC=CC=CC=CC(OC2OC(C)C(O)C(N)C2O)CC2OC(O)(CC(O)CC(O)C(O)CCC(O)CC(O)CC(=O)OC(C)C(C)C1O)CC(O)C2C(=O)O (stereo not given) | inconclusive: 9.2 µM [falling, partial curve, poor fit] | 
50 | Cc1oc2c(c1C(=O)NCc1cccnc1)C(=O)c1ccccc1C2=O | active: 2.59 µM | 
51 | COc1ccc(-c2cc(C3C4C=CCCC4(C)C(=O)N3Cc3ccccc3)ccc2F)cc1OC (stereo not given) |  | inactive: 2.85%
52 | COc1ccc(C[C@H]2CN3C(=NC[C@@H]3Cc3ccc(O)cc3)N2C[C@H](C)NC(=O)c2ccc(C)c(Br)c2)cc1 | inconclusive: 20.6 µM [falling, single point] | 
53 | O=[N+]([O-])c1ccc(CN2CCCCCC2)s1 |  | inactive: 1.8%
54 | CCOc1ccc(NC(=S)NS(=O)(=O)c2cc(Br)ccc2OCC)cc1 | inconclusive: 3.66 µM [activator, partial curve, poor fit] | 
55 | CCn1cnc2cc(NCc3ccccc3Cl)ccc21 |  | inactive: 0.656%
56 | COc1ccccc1NC(=O)N1CCOc2ccccc21 |  | inactive: -0.847%
57 | Cc1nn(-c2ccccc2)c2sc(C(=O)N(CC(=O)NC3CCCC3)Cc3ccco3)cc12 | inconclusive: 29.1 µM [falling, single point] | 
58 | CC1=NNC(=O)/C1=C\c1cn(-c2ccccc2)nc1-c1cccs1 |  | inactive: -23.1%
59 | O=C(c1cnn2c(C(F)(F)F)cc(-c3ccco3)nc12)N1CCCCCC1 |  | inactive: -0.409%
60 | CCOC(=O)CCSCC(=O)N1N=C(c2cccs2)CC1c1ccc(C)cc1 (stereo not given) |  | inactive: 0.515%
61 | CN(CCOc1ccc(Cl)cc1)C(=O)c1cc(-c2ccco2)nc2ccccc12 | inconclusive: 20.6 µM [falling, partial curve, poor fit] | 
62 | COC(=O)C1=C(C(=O)OC)[C@@H]2N(Cc3ccccc3)c3ccccc3[C@@]23C[C@@H](C(=O)OC)N(C(=O)COCc2ccccc2)C3=N1 | inconclusive: 32.6 µM [falling, partial curve, poor fit] | 
63 | CCc1ccc(C(=O)c2cn(Cc3ccccc3)c3cc(OC)c(OC)cc3c2=O)cc1 | active: 20.6 µM | 
64 | CCOC(=O)C1=C(C)NC(C)=C(C(=O)OCC)C1C(=O)OCC(=O)N1CCc2ccccc21 | inconclusive: 9.2 µM [activator, partial curve, poor fit] | 
65 | Cc1ccc(NC(=O)C/C(N)=N/OC(=O)c2ccccc2)cc1 | inconclusive: 11.6 µM [falling, partial curve, poor fit] | 
